Consider one substance from publication PMC8924000.

The chains behind the UniProt entries cited, without tags or fusion partners.
UniProt P67809: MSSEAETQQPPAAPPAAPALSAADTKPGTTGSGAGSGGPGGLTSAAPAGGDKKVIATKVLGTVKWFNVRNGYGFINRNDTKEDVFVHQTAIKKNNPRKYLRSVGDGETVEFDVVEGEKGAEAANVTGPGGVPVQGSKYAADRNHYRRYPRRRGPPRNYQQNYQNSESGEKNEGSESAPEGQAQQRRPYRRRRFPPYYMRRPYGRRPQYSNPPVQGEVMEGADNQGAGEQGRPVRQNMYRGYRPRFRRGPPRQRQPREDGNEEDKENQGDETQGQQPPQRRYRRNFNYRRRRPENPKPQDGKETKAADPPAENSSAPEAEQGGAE

Results are given in words; binding and its absence hold for the method and conditions named. Binding seen in cells or lysates may run through a third protein. A yes stands for co-enrichment or nearness to the bait. Other partners may have been found. Sequences can lack the tags named with a protein.

The assay deals with T1, Flag-GSDME (gasdermin E, wild type) (human) (UniProt O60443).
T1 sequence: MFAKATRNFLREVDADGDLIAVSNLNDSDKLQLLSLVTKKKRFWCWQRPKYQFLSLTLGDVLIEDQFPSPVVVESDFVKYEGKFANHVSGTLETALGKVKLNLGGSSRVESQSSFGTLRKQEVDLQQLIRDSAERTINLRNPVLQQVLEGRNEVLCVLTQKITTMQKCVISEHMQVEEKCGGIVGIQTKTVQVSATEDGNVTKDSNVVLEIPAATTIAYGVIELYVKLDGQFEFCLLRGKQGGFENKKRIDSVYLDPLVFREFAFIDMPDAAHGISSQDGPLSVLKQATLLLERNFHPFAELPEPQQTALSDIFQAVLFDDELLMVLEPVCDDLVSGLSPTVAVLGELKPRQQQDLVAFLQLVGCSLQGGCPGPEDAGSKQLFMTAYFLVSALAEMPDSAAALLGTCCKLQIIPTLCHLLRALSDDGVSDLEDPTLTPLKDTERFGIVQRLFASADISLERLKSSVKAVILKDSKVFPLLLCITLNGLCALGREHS
Kind of assay: affinity purification with mass spectrometry; GSDME-SG/Flag-GSDME AsPC-1 cells treated with trypsin/chymotrypsin for 48 h; cell lysates immunoprecipitated with anti-Flag (anti-IgG as control), mass spectrometry.

For “Y-box-binding protein 1 (YBX1), endogenous (from UniProt P67809 1-324)”, the binding entry was “binds”.
